Reference: the supplement of paper PMC12823440, “Inhibitors supercharge kinase turnover through native proteolytic circuits” (Nature, 2025)
Structures can show the parent of a compound that is named as a salt. The list shows a part of the results. Hit calls seldom repeat between salt and free forms of one compound.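 In K562 cells expressing nanoluciferase-fused kinases, luminescence was recorded at 4 h intervals between 2 and 18 h, normalized as percent of control with DMSO at 100% and a positive control at 0%. A significant (2 sigma) signal drop marks a time point as decreased. The authors' rule for a hit is not shown and takes in more than the number of time points.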

By UniProt entry, the sequences of proteins in these tests, tags left out. Where a name states a change or a piece, a line headed by the entry shows the natural chain unless it says otherwise.
UniProt Q9UQM7, whole entry: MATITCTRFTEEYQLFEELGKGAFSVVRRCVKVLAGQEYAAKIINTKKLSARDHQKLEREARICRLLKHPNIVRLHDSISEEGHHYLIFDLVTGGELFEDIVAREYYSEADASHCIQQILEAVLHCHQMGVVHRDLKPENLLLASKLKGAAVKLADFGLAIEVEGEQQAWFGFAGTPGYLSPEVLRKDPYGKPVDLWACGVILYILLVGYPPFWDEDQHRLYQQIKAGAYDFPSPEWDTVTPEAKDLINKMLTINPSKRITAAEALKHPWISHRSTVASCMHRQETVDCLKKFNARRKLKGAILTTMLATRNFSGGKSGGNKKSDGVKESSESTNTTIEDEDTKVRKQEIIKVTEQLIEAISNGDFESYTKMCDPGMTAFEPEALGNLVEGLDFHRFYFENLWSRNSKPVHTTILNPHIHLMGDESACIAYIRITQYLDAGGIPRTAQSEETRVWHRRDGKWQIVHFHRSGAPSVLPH
UniProt Q13555: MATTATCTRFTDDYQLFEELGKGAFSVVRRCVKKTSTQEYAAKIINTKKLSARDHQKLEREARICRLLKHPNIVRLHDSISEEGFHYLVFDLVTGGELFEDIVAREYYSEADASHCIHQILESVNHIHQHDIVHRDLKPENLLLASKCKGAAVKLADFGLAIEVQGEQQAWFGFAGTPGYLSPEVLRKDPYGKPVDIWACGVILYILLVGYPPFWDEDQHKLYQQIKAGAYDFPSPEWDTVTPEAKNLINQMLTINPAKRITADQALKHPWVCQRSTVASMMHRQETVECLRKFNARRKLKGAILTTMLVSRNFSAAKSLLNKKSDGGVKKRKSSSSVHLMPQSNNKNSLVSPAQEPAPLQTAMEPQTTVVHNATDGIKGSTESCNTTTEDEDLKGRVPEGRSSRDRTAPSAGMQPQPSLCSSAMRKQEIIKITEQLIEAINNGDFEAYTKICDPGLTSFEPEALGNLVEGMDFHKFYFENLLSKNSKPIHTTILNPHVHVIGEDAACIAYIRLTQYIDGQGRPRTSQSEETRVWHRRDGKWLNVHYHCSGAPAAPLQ
UniProt Q15131: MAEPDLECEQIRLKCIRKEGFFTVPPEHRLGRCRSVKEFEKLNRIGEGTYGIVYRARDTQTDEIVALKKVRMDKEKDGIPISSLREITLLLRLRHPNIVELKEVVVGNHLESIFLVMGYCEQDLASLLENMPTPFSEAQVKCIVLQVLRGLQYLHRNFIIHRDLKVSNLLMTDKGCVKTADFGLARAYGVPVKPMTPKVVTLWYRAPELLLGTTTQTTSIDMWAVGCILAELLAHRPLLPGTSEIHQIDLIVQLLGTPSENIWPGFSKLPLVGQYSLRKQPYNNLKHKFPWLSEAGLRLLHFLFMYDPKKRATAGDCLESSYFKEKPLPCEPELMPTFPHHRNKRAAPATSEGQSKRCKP
UniProt Q00526: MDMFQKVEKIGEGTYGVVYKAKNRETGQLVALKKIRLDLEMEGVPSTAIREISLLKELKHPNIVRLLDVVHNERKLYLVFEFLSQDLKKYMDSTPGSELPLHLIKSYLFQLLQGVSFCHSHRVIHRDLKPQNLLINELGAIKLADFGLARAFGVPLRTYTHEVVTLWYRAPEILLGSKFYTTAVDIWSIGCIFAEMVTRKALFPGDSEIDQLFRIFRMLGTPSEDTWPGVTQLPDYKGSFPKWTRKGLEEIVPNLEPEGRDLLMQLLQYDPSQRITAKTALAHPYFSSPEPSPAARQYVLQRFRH
UniProt Q00535, whole entry, looked up: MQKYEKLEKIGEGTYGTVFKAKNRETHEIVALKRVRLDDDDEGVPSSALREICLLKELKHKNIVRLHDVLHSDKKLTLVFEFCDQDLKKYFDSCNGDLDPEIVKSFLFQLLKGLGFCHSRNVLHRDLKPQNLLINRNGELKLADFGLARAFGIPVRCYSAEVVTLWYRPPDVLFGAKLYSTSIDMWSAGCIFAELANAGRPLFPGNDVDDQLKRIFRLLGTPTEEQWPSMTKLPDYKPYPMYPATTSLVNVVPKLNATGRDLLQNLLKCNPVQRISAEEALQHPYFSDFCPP
UniProt Q00534, whole entry: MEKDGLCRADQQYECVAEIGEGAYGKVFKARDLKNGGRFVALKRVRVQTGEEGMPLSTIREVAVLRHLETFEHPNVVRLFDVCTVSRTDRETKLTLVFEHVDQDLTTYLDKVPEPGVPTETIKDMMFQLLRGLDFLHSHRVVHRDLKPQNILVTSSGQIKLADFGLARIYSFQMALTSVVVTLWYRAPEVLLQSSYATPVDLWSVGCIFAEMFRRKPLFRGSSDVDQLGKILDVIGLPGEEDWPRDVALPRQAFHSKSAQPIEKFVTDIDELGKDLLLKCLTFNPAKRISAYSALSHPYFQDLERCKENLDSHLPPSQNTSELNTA
UniProt O96017, whole entry: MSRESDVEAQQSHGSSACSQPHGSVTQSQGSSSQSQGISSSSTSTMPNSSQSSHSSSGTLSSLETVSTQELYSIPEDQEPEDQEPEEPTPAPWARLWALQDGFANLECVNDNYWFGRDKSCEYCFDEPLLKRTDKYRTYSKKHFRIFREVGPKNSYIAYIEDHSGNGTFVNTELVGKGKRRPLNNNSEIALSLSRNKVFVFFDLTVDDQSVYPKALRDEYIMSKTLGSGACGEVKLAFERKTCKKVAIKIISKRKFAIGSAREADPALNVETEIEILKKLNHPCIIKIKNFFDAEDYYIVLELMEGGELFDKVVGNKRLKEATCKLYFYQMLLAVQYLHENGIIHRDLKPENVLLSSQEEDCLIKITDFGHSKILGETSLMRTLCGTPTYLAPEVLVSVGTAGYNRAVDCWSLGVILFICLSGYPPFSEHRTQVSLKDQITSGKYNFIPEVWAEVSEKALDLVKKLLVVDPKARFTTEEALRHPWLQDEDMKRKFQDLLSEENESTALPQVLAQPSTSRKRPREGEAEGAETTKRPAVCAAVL
UniProt P07333, whole entry: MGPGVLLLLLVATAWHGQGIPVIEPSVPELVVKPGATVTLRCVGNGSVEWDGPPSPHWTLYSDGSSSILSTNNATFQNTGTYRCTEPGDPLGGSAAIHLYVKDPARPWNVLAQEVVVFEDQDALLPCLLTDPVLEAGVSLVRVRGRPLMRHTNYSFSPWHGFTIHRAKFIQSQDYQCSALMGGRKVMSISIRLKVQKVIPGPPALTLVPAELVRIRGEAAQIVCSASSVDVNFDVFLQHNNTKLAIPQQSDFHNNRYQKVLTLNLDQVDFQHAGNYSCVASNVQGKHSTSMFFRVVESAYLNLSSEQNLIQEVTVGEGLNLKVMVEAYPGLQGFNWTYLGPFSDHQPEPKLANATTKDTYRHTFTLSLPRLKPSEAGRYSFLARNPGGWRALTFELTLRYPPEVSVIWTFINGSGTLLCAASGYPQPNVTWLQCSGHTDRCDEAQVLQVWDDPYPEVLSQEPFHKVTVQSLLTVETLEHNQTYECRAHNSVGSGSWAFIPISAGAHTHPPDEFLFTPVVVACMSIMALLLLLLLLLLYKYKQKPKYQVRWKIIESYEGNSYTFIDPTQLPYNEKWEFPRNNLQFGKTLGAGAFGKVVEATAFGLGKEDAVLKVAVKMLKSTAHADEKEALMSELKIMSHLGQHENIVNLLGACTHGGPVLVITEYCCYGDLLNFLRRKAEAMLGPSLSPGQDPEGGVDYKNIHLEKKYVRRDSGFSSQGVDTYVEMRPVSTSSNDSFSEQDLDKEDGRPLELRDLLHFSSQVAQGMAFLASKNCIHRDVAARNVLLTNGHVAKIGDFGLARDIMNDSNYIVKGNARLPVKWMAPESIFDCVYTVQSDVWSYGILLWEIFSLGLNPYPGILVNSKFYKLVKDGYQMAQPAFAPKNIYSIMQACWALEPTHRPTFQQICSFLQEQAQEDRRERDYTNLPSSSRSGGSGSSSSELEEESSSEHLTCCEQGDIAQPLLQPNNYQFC
UniProt P41240: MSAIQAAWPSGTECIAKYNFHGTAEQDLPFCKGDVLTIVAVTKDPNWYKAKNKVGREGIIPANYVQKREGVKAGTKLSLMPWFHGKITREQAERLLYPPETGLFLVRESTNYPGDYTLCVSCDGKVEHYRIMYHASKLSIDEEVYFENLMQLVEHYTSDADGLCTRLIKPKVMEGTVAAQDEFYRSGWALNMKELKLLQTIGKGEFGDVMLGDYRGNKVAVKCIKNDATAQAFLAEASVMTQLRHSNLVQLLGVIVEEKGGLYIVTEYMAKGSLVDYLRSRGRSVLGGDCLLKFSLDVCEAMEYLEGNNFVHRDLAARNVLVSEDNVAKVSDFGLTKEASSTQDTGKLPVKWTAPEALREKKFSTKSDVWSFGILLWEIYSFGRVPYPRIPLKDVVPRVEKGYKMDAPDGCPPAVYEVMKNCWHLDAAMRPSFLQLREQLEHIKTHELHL

Legend:
Assay in all cases: number of time points (of 5) at which kinase-Nluc abundance scored as decreased, DMSO-normalised (count); higher = more persistent destabilization
Settings in all cases: K562; 2-18 h
CAMK2A = CAMK2A (UniProt Q9UQM7)
CAMK2G = CAMK2G (UniProt Q13555)
CDK10 = CDK10 (UniProt Q15131)
CDK2 = CDK2 (UniProt P24941)
CDK3 = CDK3 (UniProt Q00526)
CDK5 = CDK5 (UniProt Q00535)
CDK6 = CDK6 (UniProt Q00534)
CHEK2 = CHEK2 (UniProt O96017)
CSF1R = CSF1R (UniProt P07333)
CSK = CSK (UniProt P41240)

Measured: number of time points

CCN1CCN(Cc2ccc(Nc3ncc(F)c(-c4cc(F)c5nc(CO)n(C(C)C)c5c4)n3)nc2)CC1 [Abemaciclib metabolite M20] (2 µM)
0: all assays above

O=C(Nc1nc2ccccc2[nH]1)c1cccc(-n2cccc2)c1 (10 µM)
0: all assays above

C[C@@H]1C(=O)O[C@H](C)[C@H]1C[C@@H](O)[C@](C)(O)[C@H]1CC[C@@]2(O)C3=CC(=O)[C@@H]4C[C@@H](O)[C@@H](O)C[C@]4(C)[C@H]3CC[C@]12C [Cyasterone] (10 µM)
0: all assays above

CC(C)CN(CC(=O)N1CCN(CC(OCc2ccc3ccccc3c2)c2ccc(Cl)cc2Cl)CC1)CC(C)C (stereo not given) [LYN-1604 (dihydrochloride)] (2.5 µM)
0: all assays above

CCOc1ccc(C(=O)Nc2ncc([N+](=O)[O-])s2)cc1 (10 µM)
0: all assays above

CC(C)c1cnc(-c2cc(Cl)ccc2F)cc1Nc1ccncc1C(=O)NC(CO)CO (2.5 µM)
0: all assays above

COc1ccc(Cn2cc(C(=O)N=Nc3c(O)[nH]c4c(C)cccc34)nn2)cc1 [MARK4 inhibitor 1] (10 µM)
0: all assays above

Cc1ccc(Oc2nc3cc(-c4ccc5c(ccn5C)c4)c(Cl)cc3[nH]2)cc1C(=O)O (10 µM)
0: all assays above

COCCO[C@@H]1[C@H](O)[C@@H](CO)O[C@H]1n1cnc2c(=O)[nH]c(N)nc21 [2′-O-(2-Methoxyethyl)guanosine] (10 µM)
0: all assays above

Nc1ncc(-c2cccc(N3CCNCC3)c2)cc1C(=O)Nc1ccncc1 [PKC-iota inhibitor 1] (10 µM)
0: all assays above

C=C(CCC=C(C)C)[C@H]1CC[C@]2(C)[C@@H]1[C@H](O)C[C@@H]1[C@@]3(C)CC[C@H](O[C@@H]4O[C@H](CO)[C@@H](O)[C@H](O)[C@H]4O[C@@H]4O[C@H](CO)[C@@H](O)[C@H](O)[C@H]4O)C(C)(C)[C@@H]3CC[C@]12C [Ginsenoside Rk1] (10 µM)
0: all assays above

CN(CC(=O)N(Cc1ccc(C2CCCCC2)cc1)c1ccc(C(=O)O)cc1)S(=O)(=O)c1c(F)c(F)c(F)c(F)c1F (2.5 µM)
0: all assays above

NCCN1CCN(C/C=C/C(=O)N2CCC[C@@H](n3nc(-c4ccc(Oc5ccccc5)cc4)c4c(N)ncnc43)C2)CC1 [Ibrutinib-MPEA] (10 µM)
0: all assays above

c1cc2c(cc1O[C@H]1OC[C@H]3[C@@H]1CO[C@@H]3c1ccc3c(c1)OCO3)OCO2 [Sesamolin] (10 µM)
0: all assays above

Cc1ccc(-c2c(C(=O)CF)n(CCCO)c3ncnc(N)c23)cc1 (10 µM)
0: all assays above

c1cn2cc(-c3ccc4cn[nH]c4c3)nc(Nc3ccc(N4CCOCC4)cc3)c2n1 [Entospletinib] (10 µM)
0: all assays above
